Assay results published in PMC11336944.
No constants are given. Whether binding was seen depends on the method and setting. Binding seen in cells or lysates may run through a third protein. These calls come from enrichment with a bait or labelling near it, and not all partners need be listed.

Chains of the proteins cited; added tags and fusions are not shown.
UniProt O70133: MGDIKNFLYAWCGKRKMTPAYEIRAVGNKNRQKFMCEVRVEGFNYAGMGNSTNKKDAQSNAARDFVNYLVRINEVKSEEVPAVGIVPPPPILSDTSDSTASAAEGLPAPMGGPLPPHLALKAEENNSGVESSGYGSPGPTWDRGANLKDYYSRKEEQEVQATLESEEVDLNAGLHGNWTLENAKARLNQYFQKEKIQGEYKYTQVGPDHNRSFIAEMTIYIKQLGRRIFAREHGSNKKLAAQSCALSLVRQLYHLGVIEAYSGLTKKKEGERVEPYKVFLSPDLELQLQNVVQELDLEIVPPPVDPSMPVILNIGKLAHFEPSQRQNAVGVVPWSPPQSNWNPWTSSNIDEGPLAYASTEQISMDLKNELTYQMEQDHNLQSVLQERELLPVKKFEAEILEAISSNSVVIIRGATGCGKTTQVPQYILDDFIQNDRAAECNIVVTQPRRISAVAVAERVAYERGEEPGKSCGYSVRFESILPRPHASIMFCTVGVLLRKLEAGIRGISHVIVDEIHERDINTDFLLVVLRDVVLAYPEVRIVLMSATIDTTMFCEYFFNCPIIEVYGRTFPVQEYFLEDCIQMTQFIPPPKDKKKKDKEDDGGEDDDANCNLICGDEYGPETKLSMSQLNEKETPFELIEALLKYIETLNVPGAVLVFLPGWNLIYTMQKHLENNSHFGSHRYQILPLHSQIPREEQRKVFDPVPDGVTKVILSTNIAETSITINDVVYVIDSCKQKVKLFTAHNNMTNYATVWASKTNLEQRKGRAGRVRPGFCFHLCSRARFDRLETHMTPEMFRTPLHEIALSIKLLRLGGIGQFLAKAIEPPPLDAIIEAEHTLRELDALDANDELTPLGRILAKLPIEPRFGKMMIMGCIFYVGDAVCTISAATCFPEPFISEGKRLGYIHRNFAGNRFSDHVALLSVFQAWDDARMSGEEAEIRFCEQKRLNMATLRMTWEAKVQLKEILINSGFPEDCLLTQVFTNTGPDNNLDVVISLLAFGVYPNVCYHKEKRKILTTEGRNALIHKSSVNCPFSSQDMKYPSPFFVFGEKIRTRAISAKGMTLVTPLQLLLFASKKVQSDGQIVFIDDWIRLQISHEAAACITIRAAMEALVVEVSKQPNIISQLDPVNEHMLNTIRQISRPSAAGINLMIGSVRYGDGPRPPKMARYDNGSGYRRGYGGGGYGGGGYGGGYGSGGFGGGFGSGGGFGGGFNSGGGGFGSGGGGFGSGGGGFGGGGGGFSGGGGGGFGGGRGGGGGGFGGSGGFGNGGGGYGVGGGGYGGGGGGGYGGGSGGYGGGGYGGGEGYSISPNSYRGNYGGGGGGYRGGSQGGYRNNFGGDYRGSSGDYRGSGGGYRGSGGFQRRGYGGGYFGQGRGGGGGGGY
UniProt P29341: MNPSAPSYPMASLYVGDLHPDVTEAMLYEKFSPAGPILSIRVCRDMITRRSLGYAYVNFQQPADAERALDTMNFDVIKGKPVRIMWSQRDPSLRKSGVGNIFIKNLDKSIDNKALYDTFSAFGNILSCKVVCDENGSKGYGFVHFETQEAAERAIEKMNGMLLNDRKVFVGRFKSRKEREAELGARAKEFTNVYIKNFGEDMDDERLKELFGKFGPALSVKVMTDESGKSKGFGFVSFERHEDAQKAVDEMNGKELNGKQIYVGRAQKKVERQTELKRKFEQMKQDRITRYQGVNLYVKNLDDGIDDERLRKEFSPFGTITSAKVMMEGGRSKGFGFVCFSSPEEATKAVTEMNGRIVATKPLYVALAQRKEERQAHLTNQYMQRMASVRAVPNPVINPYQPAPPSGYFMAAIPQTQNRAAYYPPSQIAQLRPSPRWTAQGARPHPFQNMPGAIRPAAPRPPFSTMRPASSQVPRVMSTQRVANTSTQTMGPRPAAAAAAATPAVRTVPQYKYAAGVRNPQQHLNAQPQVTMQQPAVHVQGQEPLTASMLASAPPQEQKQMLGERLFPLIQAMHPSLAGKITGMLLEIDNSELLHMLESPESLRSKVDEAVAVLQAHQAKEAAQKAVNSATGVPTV
UniProt O35286: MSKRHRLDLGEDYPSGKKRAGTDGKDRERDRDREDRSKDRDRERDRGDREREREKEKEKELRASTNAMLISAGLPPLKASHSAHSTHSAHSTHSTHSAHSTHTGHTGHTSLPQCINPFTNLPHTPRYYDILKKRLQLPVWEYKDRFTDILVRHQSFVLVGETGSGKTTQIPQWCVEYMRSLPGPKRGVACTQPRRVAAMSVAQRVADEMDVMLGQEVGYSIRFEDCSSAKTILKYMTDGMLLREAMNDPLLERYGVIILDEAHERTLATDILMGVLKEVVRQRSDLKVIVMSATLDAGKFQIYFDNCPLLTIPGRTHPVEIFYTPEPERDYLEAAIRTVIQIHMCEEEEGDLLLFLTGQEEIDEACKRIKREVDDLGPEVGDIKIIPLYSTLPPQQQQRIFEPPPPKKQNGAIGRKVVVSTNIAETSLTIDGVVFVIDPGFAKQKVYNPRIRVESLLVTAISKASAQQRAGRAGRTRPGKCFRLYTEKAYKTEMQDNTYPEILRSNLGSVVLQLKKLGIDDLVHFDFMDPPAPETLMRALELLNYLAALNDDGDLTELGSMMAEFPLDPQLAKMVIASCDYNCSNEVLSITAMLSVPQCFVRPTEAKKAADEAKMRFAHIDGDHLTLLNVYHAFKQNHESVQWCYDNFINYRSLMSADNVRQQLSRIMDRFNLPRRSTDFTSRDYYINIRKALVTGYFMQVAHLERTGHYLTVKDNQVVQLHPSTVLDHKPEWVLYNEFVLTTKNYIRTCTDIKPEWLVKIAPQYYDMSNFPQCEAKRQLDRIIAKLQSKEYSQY

Biological target: T1, CWF19‐like protein 2 (CWF19L2) (mouse (endogenous in testis)) (UniProt Q8BG79)
T1 sequence: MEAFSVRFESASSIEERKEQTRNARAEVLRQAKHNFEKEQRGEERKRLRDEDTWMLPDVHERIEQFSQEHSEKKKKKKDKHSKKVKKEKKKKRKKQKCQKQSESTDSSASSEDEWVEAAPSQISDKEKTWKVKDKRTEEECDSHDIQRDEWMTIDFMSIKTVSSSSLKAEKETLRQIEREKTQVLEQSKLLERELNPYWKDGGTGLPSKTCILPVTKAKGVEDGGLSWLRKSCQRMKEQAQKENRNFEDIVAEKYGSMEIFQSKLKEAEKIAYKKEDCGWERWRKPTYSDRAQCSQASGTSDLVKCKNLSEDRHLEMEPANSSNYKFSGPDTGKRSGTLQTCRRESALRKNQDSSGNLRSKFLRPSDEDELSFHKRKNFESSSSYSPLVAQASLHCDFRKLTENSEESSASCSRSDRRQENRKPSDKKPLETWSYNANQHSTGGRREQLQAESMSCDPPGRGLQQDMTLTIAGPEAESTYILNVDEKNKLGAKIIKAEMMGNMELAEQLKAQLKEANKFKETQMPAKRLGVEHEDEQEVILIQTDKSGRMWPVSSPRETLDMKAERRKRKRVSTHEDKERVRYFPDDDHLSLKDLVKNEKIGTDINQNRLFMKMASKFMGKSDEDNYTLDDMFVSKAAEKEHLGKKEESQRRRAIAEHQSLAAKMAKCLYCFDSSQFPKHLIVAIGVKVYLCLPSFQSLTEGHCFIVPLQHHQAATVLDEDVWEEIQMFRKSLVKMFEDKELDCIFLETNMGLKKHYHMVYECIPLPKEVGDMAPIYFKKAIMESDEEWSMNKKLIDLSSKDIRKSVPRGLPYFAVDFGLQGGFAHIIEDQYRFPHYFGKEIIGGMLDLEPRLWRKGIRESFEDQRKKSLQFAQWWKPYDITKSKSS
Assay: affinity purification with mass spectrometry; immunoprecipitation of endogenous CWF19L2 from PD10 wild-type mouse testes, mass spectrometry (IP-MS)

Substance	binding
DHX9 (from UniProt O70133 1-1380)	binds
PABPC1 (from UniProt P29341 1-636)	binds
PRPF43 (from UniProt O35286 1-795)	binds
